Laboratory results from paper PMC6514445, “Enterococcal PcfF Is a Ribbon-Helix-Helix Protein That Recruits the Relaxase PcfG Through Binding and Bending of the oriT Sequence” (Frontiers in Microbiology, 2019).
These are yes or no findings as the source states them, for the method shown. Where a sequence is shown, tags or fusion partners need not be part of it.

Columns and labels:
[1] = target: PcfG-His (relaxase PcfG with a C-terminal deca-histidine tag) (Enterococcus faecalis (plasmid pCF10)) (UniProt Q7X5P3); experiment: SEC; refolded PcfG-His on Superdex 200 10/300 GL Increase; both purified
[2] = target: T1, GST-PcfF1-54 (Enterococcus faecalis (plasmid pCF10)) (UniProt Q5G3N6); experiment: pull-down; 2 nmol GST-PcfF or variant immobilised on glutathione-agarose beads, 4 nmol PcfG-His as prey; 20 mM Tris/HCl pH 7.5, 200 mM NaCl; 5 x 10 CV washes, eluted with 30 mM reduced glutathione; SDS-PAGE, Coomassie; both purified
T1 sequence: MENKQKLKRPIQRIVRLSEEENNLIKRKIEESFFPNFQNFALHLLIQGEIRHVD

B1: PcfG-His (relaxase PcfG with a C-terminal deca-histidine tag) (enzyme, UniProt Q7X5P3 1-561)
chain: MVYTKHFVIHTFDKLNNACSYIENAEKTEVTNDNPSEHLEHLFQYIVNDDKTYMKKLVSGHGIVDPTNPYEEFKLTKLQAAIQRKIGYTFDPKSERLLPPTLTELEKGNAVLAHHLIQSFSPEDDLTPEKIHEIGYNTVMELTGGKYEFVIATHVDKEHLHNHIIFSSTNLKTGKAFRWQKGTKRVFEQISDKIAAKEGAKIIEKSPKQTHTKYTKWQTESIYKQKIKSRLDFLLEQSSSINDFLEKAEALNLSADFSNKWTTYRLLDEPQIKNTRSRSLSKSDPTRYNYEKIIERLKENKNVLTVEECVKRYEEKNEQEKNNFDYQFTIEPWQLSHKTERGYYINIDYGYGNSGKLFVGGYKVDPLDNGNYNIYIKRNEYFYFMSDKDATKSKYLTGASLIKQLRLYNGQTPLKREPVMQTIDELVSAINFLAANEIEDTRQLKLLEEKLEVAFLEAEKTLETLDEKMLELHQLSNLLLENELQGDPELIQKKLKTLLPDATLAEFSYEDVRGEIEAIKTSQTLLESKLERTRNEINQLHEIQAVQEKEPEKQTDIKPKL
binding [1]: no binding | binding [2]: no binding (tested: 4 nmol PcfG-His, 2 nmol GST-PcfF variant)
